Data as given in PubChem BioAssay AID686938 (Drosophila RNAi Screening Center, 2013).
The screen tested about 23,000 reagents; shown is an unselected part of those with a known target gene and a result. In the full data, 75 (0.33%) are marked active. 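Raw plate signals without normalisation; calls rest on plate z-scores that were not deposited; ratio present for only 364 wells.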 A plus sign joins genes that one reagent is predicted to hit. Not given: the dose of the treatment.

Aim: 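Looking for CRAC channel components and the factors controlling them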 (primary screen)
Cell system: Drosophila S2R+ cells
Knock-down reagent: long dsRNA against Drosophila genes, about 0.25 µg dsRNA per well, roughly 10,000 cells
Duration: 5 days of knock-down before the calcium assay
Conditions: thapsigargin (SERCA pump blocker) to empty calcium stores; entry signal taken 4 min after adding it
Read-out: 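Duplicate raw fluo-4 intensities per well from a plate reader, at rest and four minutes after thapsigargin emptied calcium stores; entry-to-rest ratio filled for only some wells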
Reading the numbers: calcium entry signal: higher = stronger calcium signal after store depletion; resting calcium signal: higher = higher resting calcium signal
Units: calcium entry signal in fluorescence units; resting calcium signal in fluorescence units
Hit rule: 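Hit if the duplicate-averaged plate z-score for entry over resting signal is under −3; wells with weak total dye signal (Fmax z < −2) or more than 5 off-targets removed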
Meaning of the calls: active = strongly reduced calcium entry; inactive = no strong reduction

{"gene knocked down": "CG4210", "DRSC id": "DRSC15551", "calcium entry signal, replicate 1": 4.16e7, "calcium entry signal, replicate 2": 5.28e7, "resting calcium signal, replicate 1": 1.87e7, "resting calcium signal, replicate 2": 6.43e7, "outcome": "inactive"}
{"gene knocked down": "CG9171", "DRSC id": "DRSC03152", "calcium entry signal, replicate 1": 4.91e7, "resting calcium signal, replicate 1": 2.28e7, "outcome": "inactive"}
{"gene knocked down": "CG9171", "DRSC id": "DRSC21813", "calcium entry signal, replicate 1": 3.30e7, "calcium entry signal, replicate 2": 3.04e7, "resting calcium signal, replicate 1": 1.94e7, "resting calcium signal, replicate 2": 1.42e7, "outcome": "inactive"}
{"gene knocked down": "CG43074", "DRSC id": "DRSC08044", "calcium entry signal, replicate 1": 3.46e7, "calcium entry signal, replicate 2": 4.65e7, "resting calcium signal, replicate 1": 1.60e7, "resting calcium signal, replicate 2": 2.06e7, "outcome": "inactive"}
{"gene knocked down": "CG4968", "DRSC id": "DRSC02794", "calcium entry signal, replicate 1": 5.45e7, "calcium entry signal, replicate 2": 3.89e7, "resting calcium signal, replicate 1": 2.25e7, "resting calcium signal, replicate 2": 1.57e7, "outcome": "inactive"}
{"gene knocked down": "CG5550", "DRSC id": "DRSC06943", "calcium entry signal, replicate 1": 3.21e7, "calcium entry signal, replicate 2": 4.03e7, "resting calcium signal, replicate 1": 1.41e7, "resting calcium signal, replicate 2": 1.98e7, "outcome": "inactive"}

Reformatted: 2 of the entries above.
CG9171 [DRSC21813] → calcium entry signal, replicate 1 = 3.30e7; calcium entry signal, replicate 2 = 3.04e7; resting calcium signal, replicate 1 = 1.94e7; resting calcium signal, replicate 2 = 1.42e7; outcome = inactive
CG43074 [DRSC08044] → calcium entry signal, replicate 1 = 3.46e7; calcium entry signal, replicate 2 = 4.65e7; resting calcium signal, replicate 1 = 1.60e7; resting calcium signal, replicate 2 = 2.06e7; outcome = inactive

The listing continues:
{"gene knocked down": "Ada3", "DRSC id": "DRSC20321", "calcium entry signal, replicate 1": 3.00e7, "calcium entry signal, replicate 2": 2.67e7, "resting calcium signal, replicate 1": 1.67e7, "resting calcium signal, replicate 2": 1.33e7, "outcome": "inactive"}
{"gene knocked down": "Ada3", "DRSC id": "DRSC20322", "calcium entry signal, replicate 1": 3.27e7, "calcium entry signal, replicate 2": 3.13e7, "resting calcium signal, replicate 1": 1.72e7, "resting calcium signal, replicate 2": 1.38e7, "outcome": "inactive"}
{"gene knocked down": "Gr93a", "DRSC id": "DRSC14593", "calcium entry signal, replicate 1": 4.36e7, "calcium entry signal, replicate 2": 3.83e7, "resting calcium signal, replicate 1": 5.58e7, "resting calcium signal, replicate 2": 1.89e7, "outcome": "inactive"}
{"gene knocked down": "CG4714", "DRSC id": "DRSC06883", "calcium entry signal, replicate 1": 2.56e7, "calcium entry signal, replicate 2": 2.56e7, "resting calcium signal, replicate 1": 1.19e7, "resting calcium signal, replicate 2": 1.24e7, "outcome": "inactive"}
{"gene knocked down": "GluRIIA", "DRSC id": "DRSC03334", "calcium entry signal, replicate 1": 2.52e7, "calcium entry signal, replicate 2": 2.57e7, "resting calcium signal, replicate 1": 1.25e7, "resting calcium signal, replicate 2": 1.27e7, "outcome": "inactive"}
{"gene knocked down": "CG14929 + CG14930", "DRSC id": "DRSC02412", "calcium entry signal, replicate 1": 3.48e7, "calcium entry signal, replicate 2": 4.87e7, "resting calcium signal, replicate 1": 1.71e7, "resting calcium signal, replicate 2": 2.02e7, "outcome": "inactive"}
